Values of other authors as cited in patent publication US6558900B2, “Regulation of apoptosis and in vitro model for studies thereof” (Emory University, priority 1996, dated 2003).
At least one compound was matched to its structure with a doubt left.

Test system: variety of cell types
Details: cited from earlier work

Nc1ccn([C@@H]2O[C@H](CO)[C@@H](O)[C@@H]2O)c(=O)n1 [Arabinosylcytosine]
initiation of apoptosis: act to initiate apoptosis
